Measurements published in PMC7819943, “Rice protein-binding microarrays: a tool to detect cis-acting elements near promoter regions in rice”.
This is one part of the list.

By UniProt entry, the sequences of proteins in these tests, tags left out.
UniProt Q0JBA9, entry or part of it: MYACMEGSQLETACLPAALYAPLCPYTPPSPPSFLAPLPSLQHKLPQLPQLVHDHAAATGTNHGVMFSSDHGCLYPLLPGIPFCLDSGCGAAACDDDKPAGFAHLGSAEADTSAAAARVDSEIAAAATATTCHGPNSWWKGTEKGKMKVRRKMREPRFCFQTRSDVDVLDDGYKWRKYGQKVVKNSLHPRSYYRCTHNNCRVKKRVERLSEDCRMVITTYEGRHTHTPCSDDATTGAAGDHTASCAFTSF

Target: OsWRKY34 (Oryza sativa, UniProt Q0JBA9 1-250)
Assay: protein-binding microarray (RPBM); PBS, 2% BSA, 51.3 ng/ul salmon testes DNA, 50 uM zinc acetate, 200 nM TF, 25 C, 1 h; high values mean tight binding
Conditions: protein: recombinant; tags: N-terminal polyhistidine and DsRed monomer fusion (pET32a); label: CyDye5-dUTP incorporated in the synthesized complementary strand; 3' TTTTT single-stranded linker to array surface; dsDNA, one strand shown
Summary of the method: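 The binding signal is fluorescence intensity per array feature (arbitrary units). Readings came from an Axon 4000B scanner after a washed, 2% BSA-blocked, double-stranded custom Agilent array had been incubated for 1 h at 25 °C with 200 nM protein and 50 µM zinc acetate. The protein was a Ni–NTA-purified transcription factor fused N-terminally to polyhistidine and DsRed, expressed in E. coli BL21-CodonPlus.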

Sequence	binding signal
GTACTATTTGGCTCAACTGCAACTGCACGTACTATATTCACGGAGTCACCTAGTGCAG	15200 fluorescence intensity (a.u.)
ACCACCAAACTAGTCTTGTTCTCTCCTCTCTCTCTCTCTCCGGAGTCACCTAGTGCAG	8580 fluorescence intensity (a.u.)
GGATTCAACTACGATTCCACGACTTGTTATATTCAACTACCGGAGTCACCTAGTGCAG	8110 fluorescence intensity (a.u.)
ACGTTGCTCGCTGCGTCGCTGTCCCGTTTCGACGGTTTTTCGGAGTCACCTAGTGCAG	10200 fluorescence intensity (a.u.)
ACAGCCTATTTATGTACTTGAATTCCTGCAGACTGTCCAACGGAGTCACCTAGTGCAG	8380 fluorescence intensity (a.u.)
ACGTAATTAAGAGTGAATTAATTCTACATGTATCTATCAACGGAGTCACCTAGTGCAG	8710 fluorescence intensity (a.u.)
TGCTCTCTCTCTCTCTCTCTCTCTCTCGGCACCACGGACACGGAGTCACCTAGTGCAG	11700 fluorescence intensity (a.u.)
AAACTATTTTTCTCCTCTTTTACATGCCGGTGATTTAGAACGGAGTCACCTAGTGCAG	8630 fluorescence intensity (a.u.)
AAGGCCCCAAATTATTCGCTCATACATATTCCTGTTCAAACGGAGTCACCTAGTGCAG	8390 fluorescence intensity (a.u.)
ATTCTGTATTTATTGTTTGCTGCATTCAGTTTGATTGGTTCGGAGTCACCTAGTGCAG	13900 fluorescence intensity (a.u.)
CTTGATTTTTTTCTTCTTCTGTTTTTGTTCTTGATTGATTCGGAGTCACCTAGTGCAG	14200 fluorescence intensity (a.u.)
GTCTTTTCACCCCATGAGCTCCTTTGAATCCCATGAATTTCGGAGTCACCTAGTGCAG	9830 fluorescence intensity (a.u.)
ATACCATTCTACCATAGTTCCAGATTTTTCTGCTCACAAACGGAGTCACCTAGTGCAG	8720 fluorescence intensity (a.u.)
TATACACCGGTTTATCATTACACCATATTTCCTCCGTCCTCGGAGTCACCTAGTGCAG	8840 fluorescence intensity (a.u.)
CTCTCCTTTTTTTTGGCCGTTGGTTGGGTAATTGAACGGCCGGAGTCACCTAGTGCAG	8330 fluorescence intensity (a.u.)
TCACTTTTCAACCAATCCCAATCTTTCACCATTTAATTATCGGAGTCACCTAGTGCAG	8420 fluorescence intensity (a.u.)
ACTATTCTATTATGATGATTAGGCTGTTATTGGTTGAAGTCGGAGTCACCTAGTGCAG	9550 fluorescence intensity (a.u.)
CATAATATTTTCCTCCTATCTGTTCAGCTTCCATTTTTCCCGGAGTCACCTAGTGCAG	9080 fluorescence intensity (a.u.)
GACCATACTCGCCTCAACCATTGAACGTGCCCTAATATGCCGGAGTCACCTAGTGCAG	10300 fluorescence intensity (a.u.)
TGGACAACATATGTCACAACCTCTTACCTATCTCTCTCTTCGGAGTCACCTAGTGCAG	9970 fluorescence intensity (a.u.)
ACTTCTGTCCTTGCTCCGGCCGCCGCTGCCGCCAGCCATGCGGAGTCACCTAGTGCAG	9090 fluorescence intensity (a.u.)

2 entries from above in a different format:
Sequence | binding signal
ACGTAATTAAGAGTGAATTAATTCTACATGTATCTATCAACGGAGTCACCTAGTGCAG | 8710 fluorescence intensity (a.u.)
TGCTCTCTCTCTCTCTCTCTCTCTCTCGGCACCACGGACACGGAGTCACCTAGTGCAG | 11700 fluorescence intensity (a.u.)

Carrying on.

Sequence	binding signal
CACGTTTTTTTTCTATCCGTATTTTTTTTCAGTTTTTTCGCGGAGTCACCTAGTGCAG	8910 fluorescence intensity (a.u.)
GTGGAATCAAGGGTCGGGATGGCGGAAGGGTTGAGGAGTACGGAGTCACCTAGTGCAG	11700 fluorescence intensity (a.u.)
CTCGCCTCATCCAGCATCAAATCGATACCAACATCGCCGGCGGAGTCACCTAGTGCAG	9060 fluorescence intensity (a.u.)
AATCCATTGTTCATCGTCTCCCTCACCGGCGTTTGTGTTCCGGAGTCACCTAGTGCAG	8720 fluorescence intensity (a.u.)
TCACCAGATCTGAGATCTCTTCTTTCGCATGGCACCTCAACGGAGTCACCTAGTGCAG	8590 fluorescence intensity (a.u.)
TACTTGGACTTTCCTTTTATTTTTTTTCTTTTTCTCCGATCGGAGTCACCTAGTGCAG	8410 fluorescence intensity (a.u.)
GTTGGTGGTCGTTGGATCCTATAATTGGCATAGTATATTCCGGAGTCACCTAGTGCAG	8150 fluorescence intensity (a.u.)
CCTTACTCCTCGTCTGCAGCCGCCAACACGTACGATTACACGGAGTCACCTAGTGCAG	12000 fluorescence intensity (a.u.)
TTTCTTACACTAAAATTGGTTCGAATATCGTGCGTCCGGCCGGAGTCACCTAGTGCAG	8440 fluorescence intensity (a.u.)
GTTATTCATCAGGAATTCTGTGGCATGTTTGATTAGTTACCGGAGTCACCTAGTGCAG	9000 fluorescence intensity (a.u.)
GCACCTGTCAACTCTTTTTCTCTTTAACCACATCTTATTTCGGAGTCACCTAGTGCAG	8520 fluorescence intensity (a.u.)
TTGATATACCTGTCAGCATGCAGCATGCTATCTCAGTCTTCGGAGTCACCTAGTGCAG	9210 fluorescence intensity (a.u.)
TTAGCACCAGCTTTGACAATTGTGCCCTGATTCTTGTTACCGGAGTCACCTAGTGCAG	9000 fluorescence intensity (a.u.)
AGGTGTAATAGTATTTTGTTGTCTAATTGGTTTTGATTGTCGGAGTCACCTAGTGCAG	11400 fluorescence intensity (a.u.)
TATTACGCGACACTACCCCTCTCCTCTTTCGTTTCTTTCCCGGAGTCACCTAGTGCAG	8430 fluorescence intensity (a.u.)
GCATTGTTAACTTGATTACTCTGTCCGTTTCATATTGTACCGGAGTCACCTAGTGCAG	12300 fluorescence intensity (a.u.)
GGTAAATTTTTTCATGAAAATCATTTCATATAATTATTCTCGGAGTCACCTAGTGCAG	8920 fluorescence intensity (a.u.)
AGCAAAAGTTTTGCCATTTTGTAGCACTTTTTGCCATTTTCGGAGTCACCTAGTGCAG	8250 fluorescence intensity (a.u.)
TCGCCGTGAAAGTTGCTCAACACCCGCTGAATTCTCGTTCCGGAGTCACCTAGTGCAG	8580 fluorescence intensity (a.u.)
GACATACTTTTTGGTACATCCAGTGCTGCTGCTATAAAACCGGAGTCACCTAGTGCAG	8810 fluorescence intensity (a.u.)
CTATGCCGCCAGCCATCTCGAGCTCCTCCTGACGGTTCTTCGGAGTCACCTAGTGCAG	9520 fluorescence intensity (a.u.)
